# Results published in article PMC5177617.
# Protein sequences, listed by entry. Tags and fused reporters are not part of them. Residues count along the entry.
# UniProt Q9NNX6, residues 59-404: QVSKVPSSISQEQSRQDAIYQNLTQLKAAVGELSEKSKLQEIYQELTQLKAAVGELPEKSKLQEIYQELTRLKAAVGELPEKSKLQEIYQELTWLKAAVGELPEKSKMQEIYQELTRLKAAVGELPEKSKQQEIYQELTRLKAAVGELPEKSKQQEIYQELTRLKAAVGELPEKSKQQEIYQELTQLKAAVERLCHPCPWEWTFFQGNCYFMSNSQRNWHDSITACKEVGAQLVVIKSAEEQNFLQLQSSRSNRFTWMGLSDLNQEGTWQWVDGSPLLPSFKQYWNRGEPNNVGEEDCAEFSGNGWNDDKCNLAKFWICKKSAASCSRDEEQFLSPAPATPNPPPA
# UniProt Q07021, residues 74-282: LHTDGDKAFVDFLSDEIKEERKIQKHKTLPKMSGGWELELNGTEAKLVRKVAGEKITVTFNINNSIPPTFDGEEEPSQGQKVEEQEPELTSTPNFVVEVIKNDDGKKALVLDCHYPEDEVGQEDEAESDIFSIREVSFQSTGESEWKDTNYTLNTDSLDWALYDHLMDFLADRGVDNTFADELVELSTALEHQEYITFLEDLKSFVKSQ
# These are yes or no findings as the source states them, for the method shown. Some entries that bind do so weakly or less than the wild type.
# Target: soluble DC-SIGN tetramer (entire extracellular domain including the α-helical neck region) (UniProt Q9NNX6)
# Assay: ELISA; competitive: DC-SIGN coated at 5 µg/well; gC1qR constant (5 µg/well) with ghB at 5, 2.5, 1.25, 0.625 µg/well in 5 mM CaCl2 buffer; 37°C […] then 4°C […]; bound gC1qR detected with anti-gC1qR polyclonal antibody; both purified
substance,measurement,value
recombinant mature human gC1qR (residues 74-282) (from UniProt Q07021 74-282) (receptor),binding,binds
